Measurements: patent US5409894A, “Method of preventing balloon catheterization blood vessel damage” (Sandoz Ltd., priority 1993, dated 1995)
At least one peptide structure holds a part that was inferred or is arguable (an end, a ring closure or a residue).

What was measured:
Plasma somatomedin C = Plasma somatomedin C levels (Nichols Inst. RIA) in the catheterized rats; format: in vivo, male Sprague-Dawley rats; conditions: by day 3 and for the entire study; reduced from 8,000 to 11,000 units/ml of plasma; dose group not stated
[1] = test system: balloon-catheterized carotid artery (neointimal proliferation / restenosis); assay: Rat carotid balloon catheterization: neointimal lesion development 14 days after angioplasty; format: in vivo, male Sprague-Dawley rats; conditions: from 4 days before to 14 days after catheterization, central carotid segment

Structure (SMILES): C[C@@H](O)[C@@H]1NC(=O)[C@H](CCCCN)NC(=O)[C@@H](Cc2c[nH]c3ccccc23)NC(=O)[C@H](Cc2ccccc2)NC(=O)[C@@H](NC(=O)[C@H](N)Cc2ccccc2)CSSC[C@@H](C(=O)N[C@H](CO)[C@@H](C)O)NC1=O [octreotide]
- Plasma somatomedin C level under treatment (Plasma somatomedin C): about 1,200 units/ml
- reduction of lesion area compared with the controls ([1]; 25 μg/kg(/day) s.c., n=6): 24.7%
- reduction of maximal lesion height compared with the controls ([1]; 25 μg/kg(/day) s.c., n=6): 21%
- reduction of lesion area compared with the controls ([1]; 100 μg/kg(/day) s.c., n=8): 16%
- reduction of maximal lesion height compared with the controls ([1]; 100 μg/kg(/day) s.c., n=8): 14%
